Measurements taken from the supplement of paper PMC9226226.
Values joined by “and” are separate entries in the source; they are usually repeats but may differ in a detail not shown here. Equal values may be shown once. Some of the results follow. Some well-known active drugs show little effect in this data set, so a weak value is uncertain.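 The cells are human mesenchymal stem cells that lack the Werner syndrome gene and age prematurely. Growth was tracked by automated live-cell imaging in three biological repeats, and the twenty drugs that most raised growth over vehicle were taken forward, with no fixed cutoff stated.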

Test system: Werner syndrome hMSCs (WRN-/-)
Assay: relative cell density (fold change vs vehicle control); higher = more proliferation (geroprotective)
Details: concentration (umol/L): 1, 6 days

Row | Compound | relative cell density (vehicle: DMSO) | relative cell density (vehicle: Water)
1 | CCCCOC(=O)c1ccc(N)cc1 | 1.14 | 
2 | O=C1Cc2cc(CCN3CCN(c4nsc5ccccc45)CC3)c(Cl)cc2N1 | 1.41 | 
3 | CC(C)/N=c1\cc2n(-c3ccc(Cl)cc3)c3ccccc3nc-2cc1Nc1ccc(Cl)cc1 | 0.949 | 
4 | CCN[C@H]1C[C@H](C)S(=O)(=O)c2sc(S(N)(=O)=O)cc21 |  | 0.729
5 | Nc1ncn([C@H]2C[C@H](O)[C@@H](CO)O2)c(=O)n1 | 1.16 | 
6 | C[C@]12CC[C@@H]3c4ccc(O)cc4CC[C@H]3[C@@H]1CC[C@@H]2OC(=O)CCC1CCCC1 | 1.22 | 
7 | CN(C)c1ccc(O)c2c1C[C@H]1C[C@H]3[C@H](N(C)C)C(=O)C(C(N)=O)=C(O)[C@@]3(O)C(=O)C1=C2O |  | 1.64
8 | O=C([O-])CC(O)(CC(=O)[O-])C(=O)[O-].O=C([O-])CC(O)(CC(=O)[O-])C(=O)[O-].[Bi+3].[K+].[K+].[K+].[K+].[K+] |  | 0.579
9 | C[C@@H]1[C@H](O)[C@@H](C)/C=C/C=C/C=C/C=C/C=C/C=C/C=C/[C@H](O[C@@H]2O[C@H](C)[C@@H](O)[C@H](N)[C@@H]2O)C[C@@H]2O[C@](O)(C[C@@H](O)C[C@@H](O)[C@H](O)CC[C@@H](O)C[C@@H](O)CC(=O)O[C@H]1C)C[C@H](O)[C@H]2C(=O)O | 0.964 | 
10 | CCN(CCO)CCCOc1ccc2c(Nc3cc(CC(=O)Nc4cccc(F)c4)[nH]n3)ncnc2c1 | 0.866 | 
11 | C=CC(=O)N1CCC(Oc2cc3c(Nc4ccc(Cl)c(Cl)c4F)ncnc3cc2OC)CC1 | 1.11 | 
12 | CN1CCN(C2=Nc3cc(Cl)ccc3Nc3ccccc32)CC1 | 1.48 | 
13 | NC12CC3CC(CC(C3)C1)C2 | 1.24 | 
14 | Cn1ncc(Cl)c1-c1cc(C(=O)N[C@H](CN)Cc2cccc(F)c2)sc1Cl | 1.17 | 
15 | CO[C@H]1O[C@@H]2O[C@@]3(C)CC[C@H]4[C@H](C)CC[C@@H]([C@H]1C)[C@@]24OO3 | 0.704 | 
16 | Clc1ccc(COC(Cn2ccnc2)c2ccc(Cl)cc2Cl)c(Cl)c1 (configuration not stated) | 1.08 and 1.04 | 
17 | Cc1cc(=O)n(-c2ccccc2)n1C | 0.355 | 
18 | CS(=O)(=O)n1cc2c(n1)CN([C@H]1CO[C@H](c3cc(F)ccc3F)[C@@H](N)C1)C2 | 0.965 | 
19 | CCCN(CCc1cccs1)[C@H]1CCc2c(O)cccc2C1 | 1.02 | 
20 | CC1CCc2c(N3CCC(O)CC3)c(F)cc3c(=O)c(C(=O)O)cn1c23 (configuration not stated) | 1.09 | 
21 | Cc1ccc(-c2ncc(Cl)cc2-c2ccc(S(C)(=O)=O)cc2)cn1 | 1.32 | 
22 | NCC(=O)O |  | 0.929
23 | COC1C(O)CC(=O)OC(C)CC=CC=CC(OC2CCC(N(C)C)C(C)O2)C(C)CC(CC=O)C1OC1OC(C)C(OC2CC(C)(O)C(O)C(C)O2)C(N(C)C)C1O (configuration not stated) | 1.05 | 

Arranged by count of non-hydrogen atoms (largest number first): some entries from above.
Row | Compound | relative cell density (vehicle: DMSO) | relative cell density (vehicle: Water)
5 | Nc1ncn([C@H]2C[C@H](O)[C@@H](CO)O2)c(=O)n1 | 1.16 | 
17 | Cc1cc(=O)n(-c2ccccc2)n1C | 0.355 | 
22 | NCC(=O)O |  | 0.929

Later entries:

Row | Compound | relative cell density (vehicle: DMSO) | relative cell density (vehicle: Water)
24 | COc1ccc(CCNCC(O)COc2cccc(C)c2)cc1OC (configuration not stated) | 1.02 | 
25 | CC(C)(Oc1ccc(Cl)cc1)C(=O)O | 1.12 | 
26 | O=NO | 1.27 | 
27 | CC(=O)NO | 1.45 | 
28 | Cc1ccc(NC(=O)c2ccc(CN3CC[C@H](N(C)C)C3)c(C(F)(F)F)c2)cc1Nc1nccc(-c2cncnc2)n1 | 0.874 | 
29 | CC(C)(S)[C@@H](N)C(=O)O |  | 0.661
30 | CCCCCCCCCCC[C@@H](C[C@@H]1OC(=O)[C@H]1CCCCCC)OC(=O)[C@H](CC(C)C)NC=O | 1.01 | 
31 | CC1(C)CCC(CN2CCN(c3ccc(C(=O)NS(=O)(=O)c4ccc(NCC5CCOCC5)c([N+](=O)[O-])c4)c(Oc4cnc5[nH]ccc5c4)c3)CC2)=C(c2ccc(Cl)cc2)C1 | 0.982 | 
32 | COC(=O)c1ccccc1O | 0.909 | 
33 | COc1ccccc1N1CCN(CC(O)COc2cccc3ccccc23)CC1 (configuration not stated) | 0.943 and 1.06 | 
34 | CN1CCC(=C2c3ccccc3CC(=O)c3sccc32)CC1 | 1.08 | 
35 | CC(C)(C)C(=O)OCOP(=O)(COCCn1cnc2c(N)ncnc21)OCOC(=O)C(C)(C)C | 1.1 | 
36 | CCOc1ccc(Cc2cc([C@@H]3O[C@H](SC)[C@@H](O)[C@H](O)[C@H]3O)ccc2Cl)cc1 | 1.07 | 
37 | COc1cc(OC)c(C(=O)CCCN2CCCC2)c(OC)c1 | 0.784 | 
38 | N#CC(c1ccc(Cl)cc1)c1c(Cl)cc(-n2ncc(=O)[nH]c2=O)cc1Cl (configuration not stated) | 0.906 | 
39 | OCc1cc([C@@H](O)CNCCCCCCOCCOCc2c(Cl)cccc2Cl)ccc1O | 1.12 | 
40 | O.O.O.O.O=C([O-])CC(O)(CC(=O)[O-])C(=O)[O-].[Li+].[Li+].[Li+] | 1.29 | 
41 | Nc1c(Br)cc(Br)cc1CN[C@H]1CC[C@H](O)CC1 |  | 1.04
42 | Oc1ccc(Cl)c2cccnc12 | 1.15 | 
43 | Cn1ccnc1S | 1.16 | 
44 | CS(=O)(=O)CCNCc1ccc(-c2ccc3ncnc(Nc4ccc(OCc5cccc(F)c5)c(Cl)c4)c3c2)o1 | 1.27 and 1.08 | 
45 | C=CC(=O)Nc1cccc(Nc2nc(Nc3ccc(N4CCN(C(C)=O)CC4)cc3OC)ncc2C(F)(F)F)c1 | 1.07 | 
46 | CC(C)(Sc1cc(C(C)(C)C)c(O)c(C(C)(C)C)c1)Sc1cc(C(C)(C)C)c(O)c(C(C)(C)C)c1 | 1.24 | 

Entries from the list above that contain sulfur:
Row | Compound | relative cell density (vehicle: DMSO) | relative cell density (vehicle: Water)
2 | O=C1Cc2cc(CCN3CCN(c4nsc5ccccc45)CC3)c(Cl)cc2N1 | 1.41 | 
4 | CCN[C@H]1C[C@H](C)S(=O)(=O)c2sc(S(N)(=O)=O)cc21 |  | 0.729
14 | Cn1ncc(Cl)c1-c1cc(C(=O)N[C@H](CN)Cc2cccc(F)c2)sc1Cl | 1.17 | 
18 | CS(=O)(=O)n1cc2c(n1)CN([C@H]1CO[C@H](c3cc(F)ccc3F)[C@@H](N)C1)C2 | 0.965 | 
19 | CCCN(CCc1cccs1)[C@H]1CCc2c(O)cccc2C1 | 1.02 | 
21 | Cc1ccc(-c2ncc(Cl)cc2-c2ccc(S(C)(=O)=O)cc2)cn1 | 1.32 | 
29 | CC(C)(S)[C@@H](N)C(=O)O |  | 0.661
31 | CC1(C)CCC(CN2CCN(c3ccc(C(=O)NS(=O)(=O)c4ccc(NCC5CCOCC5)c([N+](=O)[O-])c4)c(Oc4cnc5[nH]ccc5c4)c3)CC2)=C(c2ccc(Cl)cc2)C1 | 0.982 | 
34 | CN1CCC(=C2c3ccccc3CC(=O)c3sccc32)CC1 | 1.08 | 
36 | CCOc1ccc(Cc2cc([C@@H]3O[C@H](SC)[C@@H](O)[C@H](O)[C@H]3O)ccc2Cl)cc1 | 1.07 | 
43 | Cn1ccnc1S | 1.16 | 
44 | CS(=O)(=O)CCNCc1ccc(-c2ccc3ncnc(Nc4ccc(OCc5cccc(F)c5)c(Cl)c4)c3c2)o1 | 1.27 and 1.08 | 
46 | CC(C)(Sc1cc(C(C)(C)C)c(O)c(C(C)(C)C)c1)Sc1cc(C(C)(C)C)c(O)c(C(C)(C)C)c1 | 1.24 | 

The list goes on.

Row | Compound | relative cell density (vehicle: DMSO) | relative cell density (vehicle: Water)
47 | COc1cc(NC(C)CCCN)c2ncccc2c1 (configuration not stated) | 0.0856 | 
48 | COc1cc(OC)c(/C=C/S(=O)(=O)Cc2ccc(OC)c(NCC(=O)O)c2)c(OC)c1 | 0.141 | 
49 | CCCCCCCCCCCCCCCCOc1nc2ccc(C)cc2c(=O)o1 |  | 0.789
50 | NC(N)=Nc1nc(CSCC/C(N)=N/S(N)(=O)=O)cs1 | 1 | 
51 | CC/C(=C(/CC)c1ccc(O)cc1)c1ccc(O)cc1 | 1.34 | 
52 | CC1=C(/C=C/C(C)=C/C=C/C(C)=C\C(=O)O)C(C)(C)CCC1 | 1.14 | 
53 | CCOc1ccc2nc3cc(N)ccc3c(N)c2c1 | 1.19 | 
54 | CN(Cc1cnc2nc(N)nc(N)c2n1)c1ccc(C(=O)N[C@@H](CCC(=O)O)C(=O)O)cc1 | 0.938 | 
55 | Nc1nc(NC2CC2)c2ncn([C@H]3C=C[C@@H](CO)C3)c2n1 |  | 0.958
56 | C[N+](C)(C)CCOC(=O)CCC(=O)OCC[N+](C)(C)C |  | 0.982
57 | CCCCCCCCCCCCCCCCOP(=O)([O-])OCC[N+](C)(C)C |  | 0.867
58 | CSCCNc1nc(SCCC(F)(F)F)nc2c1ncn2[C@@H]1O[C@H](COP(=O)(O)OP(=O)(O)C(Cl)(Cl)P(=O)(O)O)[C@@H](O)[C@H]1O |  | 0.831
59 | CCOC(=O)c1ccc(N)cc1 | 1.29 and 1.24 | 
60 | CCN(CC)CCOC(=O)C(c1ccccc1)c1ccccc1 | 1.21 | 
61 | OC(CCCN1CCCCC1)(c1ccccc1)c1ccccc1 | 1.02 | 
62 | CN1CCN(c2c(F)cc3c(=O)c(C(=O)O)cn4c3c2OCN4C)CC1 |  | 0.906
63 | O=C1C(=O)c2ccccc2C(O)=C1C1CCC(c2ccc(Cl)cc2)CC1 (configuration not stated) | 0.89 | 
64 | Nc1ccn([C@@H]2O[C@H](CO)[C@@H](O)[C@@H]2O)c(=O)n1 |  | 0.989
65 | OC[C@H]1O[C@H](O[C@H]2[C@H](O)[C@@H](O)[C@H](O)O[C@@H]2CO)[C@H](O)[C@@H](O)[C@@H]1O | 0.941 | 
66 | O=c1[nH]c(=O)c2ccccc2o1 | 1.09 | 
67 | COc1ccnc(C[S+]([O-])c2nc3cc(OC(F)F)ccc3[nH]2)c1OC (configuration not stated) | 1.29 and 1.11 | 
68 | Nc1ccc(S(=O)(=O)Nc2ccccn2)cc1 |  | 0.9
69 | CN(C)CCCN1c2ccccc2Sc2ccc(Cl)cc21 | 1.27 | 

Row | Compound | relative cell density (vehicle: DMSO) | relative cell density (vehicle: Water)
70 | O=c1ccc2ccccc2o1 | 1.06 | 
71 | COc1cc([C@@H]2c3cc4c(cc3[C@@H](O[C@@H]3O[C@@H]5CO[C@@H](c6cccs6)O[C@H]5[C@H](O)[C@H]3O)[C@H]3COC(=O)[C@H]23)OCO4)cc(OC)c1O | 0.522 | 
72 | CCOc1ccccc1OC(c1ccccc1)C1CNCCO1 (configuration not stated) | 1.12 | 
73 | O=c1[nH]cnc2c1ncn2[C@@H]1O[C@H](CO)[C@@H](O)[C@H]1O | 1.2 | 
74 | CCN(CCO)CCCC(C)Nc1ccnc2cc(Cl)ccc12 (configuration not stated) |  | 1.17
75 | Cc1nc(Nc2ncc(C(=O)Nc3c(C)cccc3Cl)s2)cc(N2CCN(CCO)CC2)n1 | 0.549 and 0.201 | 
76 | CN(C)c1ccc(C(=C2C=CC(=[N+](C)C)C=C2)c2ccc(N(C)C)cc2)cc1 | 0.218 | 
77 | CC(=O)[C@H]1CC[C@H]2[C@@H]3CC=C4C[C@@H](O)CC[C@]4(C)[C@H]3CC[C@]12C | 1.13 | 
78 | COc1ccc(CC2c3cc(OC)c(OC)cc3CC[N+]2(C)CCC(=O)OCCCCCOC(=O)CC[N+]2(C)CCc3cc(OC)c(OC)cc3C2Cc2ccc(OC)c(OC)c2)cc1OC (configuration not stated) | 0.948 | 
79 | CC(C(=O)O)c1ccc2c(c1)CC(=O)c1ccccc1S2 (configuration not stated) | 0.798 | 
80 | Cc1nc(-c2ccc(OCC(C)C)c(C#N)c2)sc1C(=O)O | 1.36 | 
81 | C[C@@H](O)[C@H]1C(=O)N2C(C(=O)[O-])=C(SC3Cn4cnc[n+]4C3)[C@H](C)[C@H]12 (some centres not stated) |  | 0.925
82 | C=C1/C(=C\C=C2/CCC[C@]3(C)[C@@H]([C@H](C)/C=C/[C@H](C)C(C)C)CC[C@@H]23)C[C@@H](O)C[C@@H]1O | 1.13 | 
83 | Cc1nnc(C(C)C)n1[C@H]1C[C@H]2CC[C@@H](C1)N2CC[C@H](NC(=O)C1CCC(F)(F)CC1)c1ccccc1 | 1.38 | 
84 | CCCCN1CCCCC1C(=O)Nc1c(C)cccc1C (configuration not stated) | 1.1 | 
85 | COc1ccccc1OCC(O)COC(N)=O (configuration not stated) | 0.96 | 
86 | Nc1ccn([C@@H]2CS[C@H](CO)O2)c(=O)n1 | 1.06 | 
87 | CCc1c(Cl)c(O)c(Cl)c(O)c1C(=O)O[C@H]1[C@H](O)[C@H](OC)[C@H](OC/C2=C\C=C\C[C@H](O)/C(C)=C/[C@H](CC)[C@@H](O[C@@H]3OC(C)(C)[C@@H](OC(=O)C(C)C)[C@H](O)[C@@H]3O)/C(C)=C/C(C)=C/C[C@@H]([C@@H](C)O)OC2=O)O[C@@H]1C | 1.33 | 
88 | COC(=O)Nc1nc2cc([S+]([O-])c3ccccc3)ccc2[nH]1 (configuration not stated) | 1.17 | 
89 | CO/N=C(\C(=O)N[C@@H]1C(=O)N2C(C(=O)OC(C)OC(C)=O)=C(COC(N)=O)CS[C@H]12)c1ccco1 (some centres not stated) | 1.09 | 
90 | COc1c(N2CCNC(C)C2)c(F)cc2c(=O)c(C(=O)O)cn(C3CC3)c12 (configuration not stated) | 0.985 | 
91 | O=C(c1ccccc1)c1ccc2n1CCC2C(=O)O (configuration not stated) | 0.899 | 
92 | O=C(C[S+]([O-])Cc1ccco1)NC/C=C\COc1cc(CN2CCCCC2)ccn1 (configuration not stated) | 1.18 | 
